Sequences of proteins named here, by UniProt entry; tags and fusion partners are left off.
UniProt P22953: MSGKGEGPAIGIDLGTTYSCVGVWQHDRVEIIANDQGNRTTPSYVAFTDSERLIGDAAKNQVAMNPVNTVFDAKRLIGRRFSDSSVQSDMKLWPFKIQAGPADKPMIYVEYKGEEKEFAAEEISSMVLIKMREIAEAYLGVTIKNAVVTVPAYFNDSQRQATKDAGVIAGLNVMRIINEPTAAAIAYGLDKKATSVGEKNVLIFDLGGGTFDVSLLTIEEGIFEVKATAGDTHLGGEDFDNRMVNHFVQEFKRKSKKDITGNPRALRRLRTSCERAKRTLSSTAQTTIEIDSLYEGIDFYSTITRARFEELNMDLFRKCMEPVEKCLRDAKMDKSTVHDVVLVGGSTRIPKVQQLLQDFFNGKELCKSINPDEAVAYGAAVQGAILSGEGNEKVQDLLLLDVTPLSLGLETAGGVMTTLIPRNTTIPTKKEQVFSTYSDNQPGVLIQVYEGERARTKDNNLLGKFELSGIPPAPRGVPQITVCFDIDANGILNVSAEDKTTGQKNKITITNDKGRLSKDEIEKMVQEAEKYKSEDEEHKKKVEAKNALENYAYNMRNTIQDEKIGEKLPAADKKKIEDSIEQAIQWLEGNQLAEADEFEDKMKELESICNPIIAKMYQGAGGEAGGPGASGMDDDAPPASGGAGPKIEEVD

According to article doi:10.1101/2025.05.20.654906:

Target: AtDjB3-GFP (Arabidopsis thaliana) (UniProt Q9SIL3)
Experiment: co-IP

binding: binds
Substance: Hsc70-1 (from UniProt P22953 1-651)

Results are given in words; binding and its absence hold for the method and conditions named. Binding seen in cells or lysates may run through a third protein. Binding can be weak; no strength is given.
